Measured values as given in publication PMC5983854, “Structure-guided approach to site-specific fluorophore labeling of the lac repressor LacI” (PLoS ONE, 2018).
Results are given in words; binding and its absence hold for the method and conditions named.

By UniProt entry, the sequences of proteins in these tests, tags left out. Where a name states a change or a piece, a line headed by the entry shows the natural chain unless it says otherwise.
UniProt P03023: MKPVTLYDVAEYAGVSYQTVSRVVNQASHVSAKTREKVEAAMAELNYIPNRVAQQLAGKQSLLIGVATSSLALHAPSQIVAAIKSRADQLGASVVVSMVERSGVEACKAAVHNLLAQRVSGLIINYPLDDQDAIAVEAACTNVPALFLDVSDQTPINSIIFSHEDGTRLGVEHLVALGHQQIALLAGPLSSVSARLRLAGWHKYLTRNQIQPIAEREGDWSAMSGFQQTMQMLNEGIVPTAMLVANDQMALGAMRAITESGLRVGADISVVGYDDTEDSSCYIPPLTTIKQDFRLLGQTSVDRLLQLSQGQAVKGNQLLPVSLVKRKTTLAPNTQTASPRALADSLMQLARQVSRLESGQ

Columns and labels:
[1] = target: LacI^Cys-Lite (LacI^ΔCterm with C107A, C140A, C281A) (E. coli) (UniProt P03023); experiment: dynamic light scattering; W130i DLS system, BladeCell cuvette, 4°C; 12.1 mg/mL LacI^ΔCterm, 12.8 mg/mL LacI^Cys-Lite, 12.5 mg/mL LacI^Dimer; hydrodynamic diameter; dimer to monomers; both purified
[2] = target: LacI^Cys-Lite (LacI^ΔCterm with C107A, C140A, C281A) (E. coli) (UniProt P03023); experiment: SEC; analytical gel filtration on HiLoad 16/600 Superdex 200, 0.2 mL/min, buffer C (200 mM Tris-HCl pH 7.5, 200 mM KCl, 1 mM EDTA, 0.5 mM TCEP); column calibrated with proteins of known molecular weight; dimer to monomers; both purified

## LacI^Cys-Lite (LacI^ΔCterm with C107A, C140A, C281A) (from UniProt P03023 1-338) (domain or fragment)
[1]
  binding: no binding (tested: 12.8 mg/mL)
[2]
  binding: no binding
